Experimental data as given in PMC12040169 (PLOS Biology, 2025).
The other results are listed elsewhere or left out.

system: T1, CTL2-GFP (C. trachomatis L2/434/Bu, GFP-expressing); set-up: species or system HeLa; Intracellular C. trachomatis growth in HeLa cells, bulk GFP fluorescence relative to DMSO; details: bulk GFP, single well; 28.5 h, 10 µM; inhibitor
T1 construct: L2/434/Bu, GFP-expressing

| Compound | % of control remaining [%] |
| --- | --- |
| CC(Sc1nc2ccccc2c(=O)n1C1CC1)C(=O)N1CCOCC1 (centres unmarked) [CBK306045] | 97.3388 |
| C(=N\Nc1nnnn1-c1ccccc1)/c1ccco1 [CBK007334] | 120.339 |
| COc1ccc(-n2nnnc2SCC(=O)c2ccc(O)c(O)c2)cc1 [CBK293969] | 159.904 |
| O=C(CNC(=O)c1ccc2c(c1)OCCO2)N/N=C/c1cccs1 [CBK261987] | 106.427 |
| C[C@H]1CN2CCCC2CN1Cc1ccc2c(c1)CCO2 (some centres unmarked) [CBK285443] | 107.248 |
| CCC(c1ccc(F)cc1)N(C)C(=O)Cn1cc(C(=O)NC2CCCCC2)ccc1=O (centres unmarked) [CBK286106] | 16.8484 |
| CCOC(=O)C1=C(Nc2ccc(O)cc2)C(=O)N(C(C)(C)C)C1 [CBK005677] | 118.572 |
| CC(=O)Nc1ccc(-c2csc(NC(=O)NS(=O)(=O)c3ccc(C)cc3)n2)cc1 [CBK297084] | 112.078 |
| COc1ccc(/C=C/C(=O)C2CC2)c(C(=O)O)c1OC [CBK286639] | 100.147 |
| CCN1CCCC1CNC(=O)C(=O)Nc1ccccc1OC (centres unmarked) [CBK266865] | 87.5812 |
| CCOc1cc(/C=C2\SC(=S)N(Cc3ccccc3)C2=O)cc(Cl)c1OC(=O)c1ccco1 [CBK265509] | 100 |
| CC(C)(C)c1ccc(-n2cc(-c3ccc(F)cc3)nn2)cc1 [CBK113112] | 107.194 |
| CS(=O)(=O)N(CC(=O)Nc1ccc(S(N)(=O)=O)cc1)Cc1ccc(Cl)cc1 [CBK267512] | 110.378 |
| CCN(C(=O)Nc1ccc(-c2ccco2)cc1)C1CCOCC1 [CBK306916] | 115.885 |
| Cc1nc(O)cc(CCn2cc(-c3cncnc3)nn2)n1 [CBK306712] | 103.483 |
| OC1CCN(c2nccc(C(F)(F)F)n2)CC1 [CBK038372] | 111.757 |
| O=S(=O)(Nc1ccc(C(O)(C(F)(F)F)C(F)(F)F)cc1)c1ccc(-c2ccon2)s1 [CBK062105] | 124.327 |
| O=C(O)c1cc(-c2ccccc2)nc(Nc2nc3ccccc3s2)n1 [CBK264665] | 115.646 |
| COc1cccc(-c2nn(CCC#N)cc2C(N)=O)c1 [CBK305835] | 97.4741 |
| COc1cccc(-c2nnn(CC(=O)O)n2)c1 [CBK068202] | 121.704 |
| O=[N+]([O-])c1ccc(COc2cccc(/C=N/Nc3nc4ccccc4s3)c2)cc1 [CBK262160] | 110.275 |
| COc1cc(NC(=O)c2cnc(-c3ccc(Cl)cc3)c(-c3ccco3)c2)cc(C(F)(F)F)c1 [CBK037570] | 113.96 |
| CC[C@H]1CN(C(=O)c2cccnc2)CC[C@H]1CC(=O)N1CCC(C(N)=O)CC1 [CBK288772] | 122.322 |
| Cc1ccnc2nc(C(=O)OC(C)C(=O)N3CCCCCC3)nn12 (centres unmarked) [CBK306155] | 122.465 |
| O=c1oc2ccccc2c2c1nnn2CCCN1CCOCC1 [CBK261470C] | 117.792 |
| Cc1cc(C)c2nc(NC(=O)c3ccccc3)sc2c1 [CBK287308] | 128.894 |
| COc1c(Cl)cc(Cl)cc1CNC1CCCc2c1cnn2C (centres unmarked) [CBK304305C] | 100.869 |

Taken from the results shown for reference:

| Compound | % of control remaining [%] |
| --- | --- |
| O=C(O)c1cc(-c2ccccc2)nc(Nc2nc3ccccc3s2)n1 [CBK264665] | 115.646 |
| COc1cccc(-c2nn(CCC#N)cc2C(N)=O)c1 [CBK305835] | 97.4741 |
| COc1cccc(-c2nnn(CC(=O)O)n2)c1 [CBK068202] | 121.704 |

Additional entries

| Compound | % of control remaining [%] |
| --- | --- |
| CC(=O)COc1cc(OCC(C)=O)c2c3c(c(=O)oc2c1)CCC3 [CBK307219] | 134.554 |
| COc1ccc(CN2CCOCC2CC(=O)O)cc1Cn1cncn1 (centres unmarked) [CBK307220] | 128.759 |
| Cc1ccn(CCC(=O)N2CCCC(c3cc4cccnc4[nH]3)C2)n1 (centres unmarked) [CBK284927] | 122.675 |
| Cc1nn(-c2ccccc2)c2c1C(c1cnn(C)c1)SCC(=O)N2 (centres unmarked) [CBK287896] | 74.4172 |
| CS(=O)(=O)c1ccc(-c2ccc3c(c2)COC(C2CCN(C(=O)c4ccccc4O)CC2)O3)cc1 (centres unmarked) [CBK158682] | 107.481 |
| COc1ccc(CCNc2nc(-c3ccccn3)cs2)cc1OC [CBK267260] | 155.043 |
| N#Cc1c(NC(=O)CSc2nnc(N)s2)sc2c1CCCC2 [CBK266649] | 106.624 |
| c1ccc(CCNc2nc(-c3cccs3)cn3ccnc23)nc1 [CBK066633] | 110.149 |
| CCCC(=O)N1CCCCC1c1c(-c2onc(C)c2C)cnn1C (centres unmarked) [CBK282259] | 109.906 |
| CC(C)NC(=O)c1cc(C2CN(Cc3ccc4ncccc4c3)CCO2)nc2ccccc12 (centres unmarked) [CBK285895] | 106.322 |
| CC(C)CC(NC(=O)Cc1cccc(O)c1)c1ncnn1C (centres unmarked) [CBK307050] | 99.6419 |
| O=C(Nc1cccc(OCc2ccccc2)c1)c1cnc(-c2ccc(Cl)cc2)c(-c2ccco2)c1 [CBK037429] | 196.636 |
| O=C(Nc1ccncc1)c1cc2cc(F)ccc2[nH]1 [CBK107346] | 100.246 |
| CC1(NC(=O)Cn2c(C(F)(F)F)nc3ccccc32)CCC1 [CBK281606] | 163.349 |
| CC(=O)Nc1cccc(NC(=O)CSc2ccc(C(F)(F)F)cc2[N+](=O)[O-])c1 [CBK264758] | 97.6487 |
| O=c1[nH]nc2c(S(=O)(=O)N3CCCC3)cccn12 [CBK288460] | 169.059 |
| Cc1ccc(CSc2nnc(-c3ccc(NC(=O)/C=C/c4ccccc4)cc3)n2C)cc1 [CBK263850] | 132.973 |
| CCN(C(=O)c1cn2c3c(cccc3c1=O)CC2)C1CCOC(C)(C)C1 (centres unmarked) [CBK307332] | 124.109 |
| COc1ccccc1C(=O)Nc1ccccc1C(=O)Nc1ccc(C(=O)O)cc1 [CBK268625] | 158.52 |
| Cc1ccccc1N1CC(C(=O)Nc2cccnc2)CC1=O (centres unmarked) [CBK288138] | 136.752 |
| COc1ccc(S(=O)(=O)N(CCc2ccccc2)CC(=O)O)cc1C [CBK268505] | 122.175 |
| Cn1cc(Nc2nc(-c3ccc(CCNS(C)(=O)=O)cc3)cs2)cn1 [CBK305065] | 112.233 |
| CC(CC(=O)N1CCC(c2cc3cccnc3[nH]2)CC1)n1cccn1 (centres unmarked) [CBK285036] | 125.377 |
| CCCc1[nH]nc(O)c1Cc1ccc(Cl)cc1 [CBK075013] | 103.572 |
| CCOc1cc(CNc2nc[nH]n2)cc(Cl)c1OCc1ccccc1F [CBK288088] | 145.961 |
| O=C(NC1CCCCCC1)c1ccc(COCC(F)(F)C(F)F)cc1 [CBK059012] | 120.445 |
| CN(C)C(=O)CN1CCC2(C/C=C/COc3ccccc3C(=O)NC[C@@H](Cc3ccccc3)NC2=O)CC1 [CBK292185] | 105.597 |

| Compound | % of control remaining [%] |
| --- | --- |
| COc1cccc(/C=N/NC(=O)C(=O)NCc2ccccn2)c1O [CBK262097] | 100 |
| c1cncc(-c2cncc(NCC3CCOCC3)n2)c1 [CBK037195] | 203.466 |
| Cc1nc2ccccc2c(C)c1C(=O)OCc1nc(N)nc(N(C)C)n1 [CBK295627] | 136.322 |
| COc1cccc(C(=O)Nc2nc3ccccc3n2Cc2ccccc2)c1OC [CBK299811] | 98.2618 |
| Cc1c(S(=O)(=O)N2CCN(C)CC2)sc2ccc(C(C)C)cc12 [CBK170362] | 97.6065 |
| COC(=O)C1(Cc2cc(-c3ccc(F)cc3)no2)CCOCC1 [CBK285329] | 131.298 |
| C=CCn1c(SCC(=O)O)nnc1-c1ccc([N+](=O)[O-])cc1 [CBK262736] | 117.997 |
| Cc1ccc(-c2nnc(CNC(=O)C3(c4ccccc4)CC3)o2)s1 [CBK284642] | 114.065 |
| CCCCOc1ccc(-c2nnn(CC(=O)NCc3ccccc3)n2)cc1 [CBK068557] | 92.7471 |
| CC(C)(O)CCN(Cc1ccc(-c2ccc(S(C)(=O)=O)cc2)nc1)C1CCN(C(=O)OC(C)(C)C)CC1 [CBK167517] | 135.027 |
| CC(C)(C)c1oc(C(=O)O)cc1CN1CCCC1 [CBK287136] | 107.03 |
| N#Cc1nccnc1S(=O)(=O)CCO [CBK023595] | 132.064 |
| COc1cccc(CNCc2ccco2)c1OCc1ccccc1F [CBK270271C] | 111.518 |
| Cc1cc(-c2csc(CC(C)n3cc(Cl)cn3)n2)on1 (centres unmarked) [CBK304700] | 103.324 |
| CC1CC(Nc2ccccc2)c2ccccc2N1C(=O)CCCC(=O)O (centres unmarked) [CBK286960] | 111.604 |
| N#CCCN(C(=O)NC1CCc2ccccc21)C1CCCCC1 (centres unmarked) [CBK156383] | 128.468 |
| Cc1ccnn1CCC(=O)NC1(c2ccccc2F)CCCC1 [CBK283691] | 140.25 |
| CN1CCCCCC1c1nc(-c2ccccc2)nn1CCCO (centres unmarked) [CBK307653] | 126.363 |
| COc1nc(NCc2ccco2)nc(OC)n1 [CBK027479] | 100 |
| O=C(c1c[nH]c(C(=O)N2CCN(c3ccccn3)CC2)c1)c1ccc(Cl)cc1Cl [CBK107419] | 99.4865 |
| COc1cccc(C(=O)NC(=S)Nc2ccc(C(=O)O)c(Cl)c2)c1 [CBK265065] | 118.589 |
| CC(C)C(=O)Nc1cc2cccnc2nc1-c1ccc(N(C)C)cc1 [CBK073650] | 100 |
| CCn1nc(-c2ccc(Cl)cc2)c2c(=O)n(C)c(=O)[nH]c21 [CBK287845] | 107.005 |
| COc1ccc(CN2CCN(c3nccnc3OC3CCCCC3)CC2)cc1 [CBK082830T] | 105.423 |
| CCN(CCCNC(=O)c1cc(-c2cccnc2)nc2ccccc12)c1cccc(C)c1 [CBK294465] | 159.743 |
| O=c1cc(O)c2c(=O)[nH]c(=O)n(-c3ccccc3)c2[nH]1 [CBK287907] | 127.297 |

Taken from above.
% of control remaining [%] with COC(=O)C1(Cc2cc(-c3ccc(F)cc3)no2)CCOCC1 [CBK285329] reads 131.298
% of control remaining [%] with c1cncc(-c2cncc(NCC3CCOCC3)n2)c1 [CBK037195] reads 203.466
% of control remaining [%] with CC1CC(Nc2ccccc2)c2ccccc2N1C(=O)CCCC(=O)O (centres unmarked) [CBK286960] reads 111.604
